Binding data for three molecules are collected here from article doi:10.1101/2022.12.21.521514.

Chains of the proteins cited; added tags and fusions are not shown.
UniProt Q64373: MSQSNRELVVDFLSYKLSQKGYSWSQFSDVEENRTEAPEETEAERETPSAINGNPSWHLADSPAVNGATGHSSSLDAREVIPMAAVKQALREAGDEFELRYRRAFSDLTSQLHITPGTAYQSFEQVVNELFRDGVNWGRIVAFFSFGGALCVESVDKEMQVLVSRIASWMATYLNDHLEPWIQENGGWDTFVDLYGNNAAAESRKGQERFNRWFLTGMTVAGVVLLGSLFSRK
UniProt O88597: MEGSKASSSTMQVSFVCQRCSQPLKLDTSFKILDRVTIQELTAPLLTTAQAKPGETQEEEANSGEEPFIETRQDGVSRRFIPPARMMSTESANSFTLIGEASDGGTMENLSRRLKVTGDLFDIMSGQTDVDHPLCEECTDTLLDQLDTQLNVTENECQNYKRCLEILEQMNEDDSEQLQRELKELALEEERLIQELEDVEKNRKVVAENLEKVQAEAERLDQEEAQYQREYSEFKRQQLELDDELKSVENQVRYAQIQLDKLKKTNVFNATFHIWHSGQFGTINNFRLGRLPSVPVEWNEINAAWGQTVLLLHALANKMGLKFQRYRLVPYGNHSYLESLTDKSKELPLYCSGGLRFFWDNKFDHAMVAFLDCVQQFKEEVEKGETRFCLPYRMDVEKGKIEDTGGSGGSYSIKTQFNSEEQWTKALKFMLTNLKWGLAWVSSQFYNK

What all share (assay): co-IP
The target in assay [1] is BCL2L1 (mouse (endogenous in beige adipocytes from mouse IGW SVF cells)) (UniProt Q64373).
Assay [2] concerns the target T1, p16^INK4a (mouse (endogenous in beige adipocytes from mouse IGW SVF cells)) (UniProt P51480).
T1 sequence: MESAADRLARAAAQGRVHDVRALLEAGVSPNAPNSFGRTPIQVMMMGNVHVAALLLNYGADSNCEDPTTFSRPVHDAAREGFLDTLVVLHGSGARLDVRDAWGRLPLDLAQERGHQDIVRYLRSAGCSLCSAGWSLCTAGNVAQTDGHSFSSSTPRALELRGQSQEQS

Assay [3] concerns the target T2, p19^ARF (mouse (endogenous in beige adipocytes from mouse IGW SVF cells)) (UniProt Q64364).
T2 sequence: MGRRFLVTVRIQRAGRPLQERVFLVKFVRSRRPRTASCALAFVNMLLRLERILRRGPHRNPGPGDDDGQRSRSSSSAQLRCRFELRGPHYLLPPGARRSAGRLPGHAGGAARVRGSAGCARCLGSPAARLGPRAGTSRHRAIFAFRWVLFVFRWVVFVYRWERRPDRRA

Results are given in words; binding and its absence hold for the method and conditions named. Binding seen in cells or lysates may run through a third protein. Some results given as binding are weak or reduced against the parent protein; the word gives no strength.

Consider BECN1 (from UniProt O88597 1-448), for which the binding result was “binds” in assay [1], “no binding” in assay [2] and “binds” in assay [3].
BCL2L1 (from UniProt Q64373 1-233): the binding result in assay [2] is “no binding”; in assay [3], “binds”.

B1: p19^ARF (protein, UniProt Q64364 1-169)
chain: T2 sequence
Regarding B1, the binding entry in assay [1] is on record as “binds”.
